The values below come from paper PMC8392593.

The target in this assay is MuRF1 in fusion with the binding domain of GAL4 (pBridge, MCS I) (rat) (UniProt Q91Z63). Nature of the assay: two-hybrid; Matchmaker Gold yeast two-hybrid; MuRF1 alone as GAL4 binding-domain fusion, preys in pGADT7; growth of diploid clones on -LTH + Aureobasidin A + 3-AT followed over 21 days.

No constants are given. Whether binding was seen depends on the method and setting. Some binding calls cover weakened binding; strength is not graded here. Tags and fused reporters may be left off the sequences shown.

B1: MuRF3 in pGADT7 (GAL4 activation domain fusion) (enzyme, UniProt Q9ERP3 1-366)
chain: MNFTVGFKPLLGDAHNMDNLEKQLICPICLEMFSKPVVILPCQHNLCRKCANDVFQASNPLWQSRGSTTVSSGGRFRCPSCRHEVVLDRHGVYGLQRNLLVENIIDIYKQESSRPLHAKAEQHLMCEEHEDEKINIYCLSCEVPTCSLCKVFGAHKDCEVAPLPTIYKRQKSELSDGIAMLVAGNDRVQAVITQMEEVCQTIEDNSRRQKQLLNQRFETLCAVLEERKGELLQALAREQEEKLQRVRGLIRQYGDHLEGSSKLVESAIQSMEEPQMALYLQQAKELINKVGAMSKVELAGRPEPGYESMEQFSVSVEHVAEMLRTIDFQPGAAGDEEDDDMALDGEEGNAGLEEERLDVPEGSGLH
B1: the binding entry is “binds”.
